The list is a part of this screen's results and no random one: it gathers tests that were run many times, whatever their T/C, doses with no T/C, and many T/C values between a quarter and a half above the control. Other doses and runs of a compound stand elsewhere. T/C is the treated group as % of the vehicle group. Some doses have a count of surviving animals in place of a T/C: the source holds a T/C of zero for them, seemingly a mark for toxic or unscored doses. Some survivor counts are full or nearly so, which does not show that the dose was tolerated: survival well below the control is almost never listed, so the zero probably covers shortened survival too. Survivors were counted at the toxicity check, usually on the fifth day, unless a day is given; later deaths do not show. Schedules are NCI's codes, read here as Q, the interval in days (D) or hours (H), X, the number of doses. Where survival is the endpoint, this PubChem deposit counts one and a half times the control or more as active, and values a quarter to a half above the control carry no call in these data; other NCI protocols may use other cut-offs. Some T/C values carry the count of animals alive at the toxicity check (mostly the fifth day); without a count, all were alive then.
Tested on: BDF1 mice, B16 melanoma ip, median survival T/C
Assay: NCI In Vivo Anticancer Drug Screen. Data for tumor model B16 Melanoma (intraperitoneal) in B6D2F1 (BDF1) mice
Conditions: T/C endpoint: median survival time, higher T/C = longer survival
In short: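 Tumor-bearing mice received test compound or vehicle. Survival or tumor size was then measured in both groups. The treated-group figure was divided by the control-group figure.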

[1] = dose: 12.5 mg/kg/injection, schedule: Q01DX009 (ip), vehicle: saline with Tween-80
[2] = dose: 25.0 mg/kg/injection, schedule: Q01DX009 (ip), vehicle: Klucel (hydroxypropylcellulose) (HPC)
[3] = dose: 25.0 mg/kg/injection, schedule: Q01DX009 (ip), vehicle: carboxymethylcellulose (CMC)
[4] = dose: 50.0 mg/kg/injection, schedule: Q01DX009 (ip), vehicle: Klucel (hydroxypropylcellulose) (HPC)
[5] = dose: 200.0 mg/kg/injection, schedule: Q01DX009 (ip), vehicle: Klucel (hydroxypropylcellulose) (HPC)
[6] = dose: 100.0 mg/kg/injection, schedule: Q01DX009 (ip), vehicle: Klucel (hydroxypropylcellulose) (HPC)
[7] = dose: 400.0 mg/kg/injection, schedule: Q01DX009 (ip), vehicle: Klucel (hydroxypropylcellulose) (HPC)
[8] = dose: 100.0 mg/kg/injection, schedule: Q01DX009 (ip), vehicle: saline
[9] = dose: 200.0 mg/kg/injection, schedule: Q01DX009 (ip), vehicle: saline
[10] = dose: 400.0 mg/kg/injection, schedule: Q01DX009 (ip), vehicle: saline
[11] = dose: 50.0 mg/kg/injection, schedule: Q01DX009 (ip), vehicle: saline with Tween-80

With `COC1C(O)C(C)OC(OC2C(Oc3cccc4c(O)c5c(=O)oc6ccc(C)c7c(=O)oc(c34)c5c67)OC(C)C(O)C2O)C1O` (stereo unspecified) the survivor count (dose: 12.5 mg/kg/injection, schedule: Q01DX009 (ip), vehicle: carboxymethylcellulose (CMC)) was 10 of 10, the T/C [1] was 146 % of control and the T/C [2] was 125 % of control. For the same molecule, the T/C [3] was 139 % of control, the survivor count [3] was 8 of 10 and the T/C [4] was 126 % of control. The survivor count (dose: 50.0 mg/kg/injection, schedule: Q01DX009 (ip), vehicle: carboxymethylcellulose (CMC)) was 9 of 10, the survivor count (dose: 100.0 mg/kg/injection, schedule: Q01DX009 (ip), vehicle: carboxymethylcellulose (CMC)) was 4 of 10 and the survivor count [5] was 2 of 10. For the same molecule, the survivor count (dose: 200.0 mg/kg/injection, schedule: Q01DX009 (ip), vehicle: carboxymethylcellulose (CMC)) was 0 of 10 and the survivor count (dose: 256.0 mg/kg/injection, schedule: Q04DX003 (ip), vehicle: saline with Tween-80) was 5 of 8.

`[Cl][Pt+2][Cl].[NH-]C1CCCCC1.[NH-]C1CCCCC1` was tested, and the survivor count [6] was 10 of 10, the survivor count [5] was 10 of 10 and the survivor count [7] was 10 of 10.

For `ClC1C(Cl)C(Cl)C(Cl)C(Cl)C1Cl` (stereo unspecified), the survivor count (dose: 100.0 mg/kg/injection, schedule: Q01DX009 (ip), vehicle: saline with Tween-80) was 10 of 10 and the survivor count [7] was 10 of 10.

`NCCCN=c1ccc2c3c1c(O)c1c(O)ccc(=O)c1c3[nH]n2CCNCCO` was tested, and the survivor count (dose: 16.0 mg/kg/injection, schedule: Q01DX009 (ip), vehicle: water) was 10 of 10.

`Nc1ccc2ccc(O)cc2c1` was tested, and the survivor count (dose: 300.0 mg/kg/injection, schedule: Q04DX003 (ip), vehicle: saline with Tween-80) was 0 of 10.

`Cc1cc(C)nc(NC(=O)COc2ccc(Cl)cc2)c1` was tested, and the survivor count [2] was 9 of 10, the survivor count [6] was 9 of 10 and the survivor count [5] was 7 of 10.

With `CN1CCC(CN2c3ccccc3Sc3ccccc32)C1` (stereo unspecified) the survivor count (dose: 1.56 mg/kg/injection, schedule: Q01DX009 (ip), vehicle: saline) was 10 of 10, the survivor count [8] was 3 of 10 and the survivor count [9] was 0 of 10. The survivor count [10] was 0 of 10.

In the case of `CCCCC(=O)OCC(=O)[C@]1(O)Cc2c(O)c3c(c(O)c2[C@@H](OC2CC(NC(=O)C(F)(F)F)C(O)C(C)O2)C1)C(=O)c1c(OC)cccc1C3=O` (stereo partly specified), the T/C (dose: 8.0 mg/kg/injection, schedule: Q01DX009 (ip), vehicle: distilled water + Tween-80) is reported as 136 % of control, the T/C (dose: 9.38 mg/kg/injection, schedule: Q01DX001 (ip), vehicle: clinical formulation) is reported as 126 % of control and the T/C (dose: 16.0 mg/kg/injection, schedule: Q01DX009 (ip), vehicle: distilled water + Tween-80) is reported as 140 % of control. The T/C (dose: 60.0 mg/kg/injection, schedule: Q01DX004 (ip), vehicle: other) was 141 % of control, the T/C (dose: 75.0 mg/kg/injection, schedule: Q01DX001 (ip), vehicle: clinical formulation) was 128 % of control and the survivor count (dose: 256.0 mg/kg/injection, schedule: Q01DX009 (ip), vehicle: distilled water + Tween-80) was 10 of 10.

`CCCc1c(Cl)nc(Cl)nc1Cl` was tested, and the survivor count [4] was 8 of 10 and the survivor count [6] was 1 of 10.

For `NC1CONC1=O` (stereo unspecified), the survivor count (dose: 3.13 mg/kg/injection, schedule: Q01DX009 (ip), vehicle: saline) was 10 of 10.

With `CC(=O)[O][Hg][c]1c(C)c(C)c(C)c(C)c1C` the survivor count [2] was 10 of 10 and the survivor count [4] was 9 of 10.

With `CCCCCCCCCCCCCCCC(=O)O[C@@]12C[C@@H](C)[C@@]3(O)[C@@H](C=C(CO)C[C@]4(O)C(=O)C(C)=C[C@@H]34)[C@@H]1C2(C)C` the survivor count (dose: 0.25 mg/kg/injection, schedule: Q01DX009 (ip), vehicle: other) was 9 of 10, the survivor count (dose: 0.5 mg/kg/injection, schedule: Q01DX009 (ip), vehicle: other) was 8 of 10 and the survivor count (dose: 1.0 mg/kg/injection, schedule: Q01DX009 (ip), vehicle: other) was 2 of 10.

For `C=CCCCC[P+](c1ccccc1)(c1ccccc1)c1ccccc1`, the survivor count (dose: 6.0 mg/kg/injection, schedule: Q01DX009 (ip), vehicle: saline) was 6 of 6 and the survivor count (dose: 12.0 mg/kg/injection, schedule: Q01DX009 (ip), vehicle: saline) was 6 of 6.

`NC(=S)N/N=C1/c2cc(Cl)ccc2-c2c(NC(=O)C(Cl)Cl)cc(Cl)cc21` was tested, and the survivor count (dose: 800.0 mg/kg/injection, schedule: Q01DX009 (ip), vehicle: saline with Tween-80) was 0 of 6.

With `COC(CCC(C)C1OC23CC(OC(=O)CC(C(C)O)OC(=O)CC(O)(O2)C(C)CC3(C)C)C1C)c1cccc(O)c1` (stereo unspecified) the T/C (dose: 25.0 micrograms/kg/injection, schedule: Q01DX009 (ip), vehicle: other) was 146 % of control, the T/C (dose: 50.0 micrograms/kg/injection, schedule: Q01DX009 (ip), vehicle: other) was 142 % of control and the T/C (dose: 100.0 micrograms/kg/injection, schedule: Q01DX009 (ip), vehicle: other) was 142 % of control [9 of 10 alive].

In the case of `CN(C)CC(CN1c2ccccc2Sc2ccccc21)N(C)C` (stereo unspecified), the survivor count [8] is reported as 8 of 10, the survivor count [9] is reported as 0 of 10 and the survivor count [10] is reported as 0 of 10.

With `COc1ccccc1NC(=O)Nc1ccc(Nc2ccccc2)cc1` the survivor count (dose: 400.0 mg/kg/injection, schedule: Q01DX009 (ip), vehicle: gum acacia) was 8 of 10.

`Cc1nc2ccccc2nc1CI` was tested, and the survivor count [1] was 5 of 6, the survivor count (dose: 25.0 mg/kg/injection, schedule: Q01DX009 (ip), vehicle: saline with Tween-80) was 5 of 6 and the survivor count [11] was 0 of 6.

With `Cc1cc2ccc(OC(=O)c3ccc(N=C(N)N)cc3)cc2oc1=O` the survivor count [11] was 10 of 10, the survivor count (dose: 200.0 mg/kg/injection, schedule: Q01DX009 (ip), vehicle: saline with Tween-80) was 10 of 10 and the survivor count (dose: 400.0 mg/kg/injection, schedule: Q01DX009 (ip), vehicle: saline with Tween-80) was 10 of 10.

In the case of `NC(=O)c1ncn2c(=O)n(CCCl)nnc12`, the T/C (dose: 3.12 mg/kg/injection, schedule: Q01DX009 (ip), vehicle: saline) is reported as 144 % of control.

Source: PubChem BioAssay AID192 (DTP/NCI, 2004)
